In the experiment the target is USP25 overexpressed in 293T cells (bait of the IP-MS) (UniProt Q9UHP3). Briefly: affinity purification with mass spectrometry; USP25 immunoprecipitated from USP25-overexpressing 293T cells (IP lysis buffer, protein A/G agarose beads), LC-MS/MS; candidates with >2 unique peptides.

Protein sequences, listed by entry. Tags and fused reporters are not part of them. Residues count along the entry.
UniProt Q9UHP3: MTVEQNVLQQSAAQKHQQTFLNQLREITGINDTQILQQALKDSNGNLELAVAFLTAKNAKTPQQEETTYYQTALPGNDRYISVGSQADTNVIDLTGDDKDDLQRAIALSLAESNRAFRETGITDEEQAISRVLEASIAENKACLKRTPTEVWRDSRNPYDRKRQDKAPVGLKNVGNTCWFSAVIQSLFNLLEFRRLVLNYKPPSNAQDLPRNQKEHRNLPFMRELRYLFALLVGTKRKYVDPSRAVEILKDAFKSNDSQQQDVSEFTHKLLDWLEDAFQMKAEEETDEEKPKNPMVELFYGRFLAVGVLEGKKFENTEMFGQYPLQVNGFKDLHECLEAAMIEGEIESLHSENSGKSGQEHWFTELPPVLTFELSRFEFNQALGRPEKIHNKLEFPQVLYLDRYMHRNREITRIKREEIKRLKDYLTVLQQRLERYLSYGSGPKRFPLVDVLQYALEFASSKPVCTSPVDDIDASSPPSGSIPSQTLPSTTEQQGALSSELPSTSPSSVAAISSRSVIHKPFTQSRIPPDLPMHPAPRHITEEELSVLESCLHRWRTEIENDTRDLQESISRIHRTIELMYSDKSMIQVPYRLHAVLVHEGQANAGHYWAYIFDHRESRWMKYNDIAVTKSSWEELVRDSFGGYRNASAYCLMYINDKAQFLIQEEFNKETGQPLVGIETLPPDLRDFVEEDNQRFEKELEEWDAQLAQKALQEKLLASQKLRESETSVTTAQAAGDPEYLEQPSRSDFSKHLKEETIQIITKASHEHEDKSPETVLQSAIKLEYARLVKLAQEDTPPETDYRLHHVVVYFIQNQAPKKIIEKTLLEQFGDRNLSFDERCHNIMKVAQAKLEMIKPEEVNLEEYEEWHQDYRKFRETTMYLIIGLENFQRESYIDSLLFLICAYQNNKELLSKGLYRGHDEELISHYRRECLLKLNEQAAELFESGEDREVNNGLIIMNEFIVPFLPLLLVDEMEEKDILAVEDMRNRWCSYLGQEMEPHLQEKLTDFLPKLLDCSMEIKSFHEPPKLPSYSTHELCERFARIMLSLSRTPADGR
UniProt P11021, residues 19-654: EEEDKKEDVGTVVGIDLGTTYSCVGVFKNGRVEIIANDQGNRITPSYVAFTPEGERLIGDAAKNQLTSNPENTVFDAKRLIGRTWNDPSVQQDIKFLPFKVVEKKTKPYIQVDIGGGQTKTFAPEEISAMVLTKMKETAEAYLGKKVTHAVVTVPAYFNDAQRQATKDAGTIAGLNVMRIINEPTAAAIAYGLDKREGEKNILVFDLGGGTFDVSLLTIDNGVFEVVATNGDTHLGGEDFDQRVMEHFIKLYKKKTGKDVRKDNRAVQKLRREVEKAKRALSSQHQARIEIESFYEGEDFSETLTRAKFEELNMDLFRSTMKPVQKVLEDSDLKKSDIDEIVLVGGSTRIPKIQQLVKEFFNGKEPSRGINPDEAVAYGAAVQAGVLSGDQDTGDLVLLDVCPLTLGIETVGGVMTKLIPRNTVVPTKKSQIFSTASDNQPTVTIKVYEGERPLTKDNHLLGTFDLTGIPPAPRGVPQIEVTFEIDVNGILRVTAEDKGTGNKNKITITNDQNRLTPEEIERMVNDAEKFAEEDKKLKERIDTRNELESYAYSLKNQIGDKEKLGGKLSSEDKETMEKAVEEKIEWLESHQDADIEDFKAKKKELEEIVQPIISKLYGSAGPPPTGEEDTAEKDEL
UniProt P40763: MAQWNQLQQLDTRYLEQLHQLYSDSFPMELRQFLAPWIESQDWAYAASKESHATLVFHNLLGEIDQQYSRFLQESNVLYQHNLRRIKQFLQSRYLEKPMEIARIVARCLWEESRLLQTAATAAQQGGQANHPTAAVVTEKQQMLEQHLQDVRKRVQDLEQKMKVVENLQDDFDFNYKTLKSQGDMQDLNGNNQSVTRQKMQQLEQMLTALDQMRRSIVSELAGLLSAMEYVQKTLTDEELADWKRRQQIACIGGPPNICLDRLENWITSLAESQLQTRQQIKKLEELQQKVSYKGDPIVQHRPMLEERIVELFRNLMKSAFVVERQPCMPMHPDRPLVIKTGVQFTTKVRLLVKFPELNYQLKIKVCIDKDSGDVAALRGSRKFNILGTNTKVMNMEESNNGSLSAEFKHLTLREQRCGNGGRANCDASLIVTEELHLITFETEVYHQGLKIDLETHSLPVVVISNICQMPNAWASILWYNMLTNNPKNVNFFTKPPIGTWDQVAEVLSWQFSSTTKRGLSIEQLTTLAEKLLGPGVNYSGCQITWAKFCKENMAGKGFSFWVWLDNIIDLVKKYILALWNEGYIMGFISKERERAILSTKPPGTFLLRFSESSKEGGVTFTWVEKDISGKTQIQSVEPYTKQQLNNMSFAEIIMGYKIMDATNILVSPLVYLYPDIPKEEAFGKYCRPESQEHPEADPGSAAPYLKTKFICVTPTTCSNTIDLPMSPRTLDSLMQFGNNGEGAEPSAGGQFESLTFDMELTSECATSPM

Results are given in words; binding and its absence hold for the method and conditions named. In cells and extracts the contact can be indirect. A yes stands for co-enrichment or nearness to the bait. Other partners may have been found.

In the case of BIP (from UniProt P11021 19-654), the binding result is listed as “binds”.

On to HSP90A (from UniProt P07900 1-732), for which the binding entry was “binds”.

Turning to “endogenous STAT3 (from UniProt P40763 1-770)”, the binding entry is “binds”.

The record behind these values is article PMC11707020.
